Among the data in the supplement of paper PMC10849652 are log2 fold change values, retold here.

By UniProt entry, the sequences of proteins in these tests, tags left out. Where a name states a change or a piece, a line headed by the entry shows the natural chain unless it says otherwise.
UniProt Q9UBQ7: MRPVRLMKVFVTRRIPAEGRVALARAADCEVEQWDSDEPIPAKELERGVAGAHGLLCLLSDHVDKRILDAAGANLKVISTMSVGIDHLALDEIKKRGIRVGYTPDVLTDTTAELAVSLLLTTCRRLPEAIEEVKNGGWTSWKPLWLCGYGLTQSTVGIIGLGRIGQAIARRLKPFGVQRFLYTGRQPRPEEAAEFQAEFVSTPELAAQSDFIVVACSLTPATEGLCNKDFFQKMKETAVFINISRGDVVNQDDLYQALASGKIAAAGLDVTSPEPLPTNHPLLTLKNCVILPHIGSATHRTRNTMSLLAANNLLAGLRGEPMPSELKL
UniProt Q92896: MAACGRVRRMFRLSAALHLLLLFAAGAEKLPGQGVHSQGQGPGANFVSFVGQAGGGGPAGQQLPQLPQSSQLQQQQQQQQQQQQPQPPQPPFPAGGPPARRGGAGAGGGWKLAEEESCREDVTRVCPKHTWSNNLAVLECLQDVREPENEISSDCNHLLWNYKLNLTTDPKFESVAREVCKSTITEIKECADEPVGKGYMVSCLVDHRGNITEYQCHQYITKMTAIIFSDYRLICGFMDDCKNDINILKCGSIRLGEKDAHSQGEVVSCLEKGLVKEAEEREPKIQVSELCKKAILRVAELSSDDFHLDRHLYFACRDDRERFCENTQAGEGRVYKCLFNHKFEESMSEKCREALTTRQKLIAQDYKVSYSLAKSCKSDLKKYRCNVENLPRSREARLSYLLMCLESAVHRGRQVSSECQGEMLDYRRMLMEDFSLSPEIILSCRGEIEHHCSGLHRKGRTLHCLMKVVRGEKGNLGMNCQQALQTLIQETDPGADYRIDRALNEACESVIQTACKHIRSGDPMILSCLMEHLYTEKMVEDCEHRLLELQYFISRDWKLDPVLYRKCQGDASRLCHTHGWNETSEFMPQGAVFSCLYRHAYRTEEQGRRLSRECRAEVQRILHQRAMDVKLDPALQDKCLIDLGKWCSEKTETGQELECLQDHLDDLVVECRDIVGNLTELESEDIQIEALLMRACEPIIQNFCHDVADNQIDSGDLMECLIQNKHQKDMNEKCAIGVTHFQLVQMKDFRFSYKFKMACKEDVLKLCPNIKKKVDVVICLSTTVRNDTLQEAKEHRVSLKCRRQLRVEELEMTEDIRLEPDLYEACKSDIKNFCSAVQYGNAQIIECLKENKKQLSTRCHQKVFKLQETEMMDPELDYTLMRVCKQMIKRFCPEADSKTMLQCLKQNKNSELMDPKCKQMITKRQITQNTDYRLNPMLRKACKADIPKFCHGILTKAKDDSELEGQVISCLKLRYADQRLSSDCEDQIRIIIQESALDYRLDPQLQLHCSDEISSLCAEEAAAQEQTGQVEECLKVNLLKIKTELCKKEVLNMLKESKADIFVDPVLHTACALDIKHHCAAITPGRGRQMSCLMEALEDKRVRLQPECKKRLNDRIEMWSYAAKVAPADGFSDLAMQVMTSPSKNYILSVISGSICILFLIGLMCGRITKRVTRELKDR
UniProt Q12849: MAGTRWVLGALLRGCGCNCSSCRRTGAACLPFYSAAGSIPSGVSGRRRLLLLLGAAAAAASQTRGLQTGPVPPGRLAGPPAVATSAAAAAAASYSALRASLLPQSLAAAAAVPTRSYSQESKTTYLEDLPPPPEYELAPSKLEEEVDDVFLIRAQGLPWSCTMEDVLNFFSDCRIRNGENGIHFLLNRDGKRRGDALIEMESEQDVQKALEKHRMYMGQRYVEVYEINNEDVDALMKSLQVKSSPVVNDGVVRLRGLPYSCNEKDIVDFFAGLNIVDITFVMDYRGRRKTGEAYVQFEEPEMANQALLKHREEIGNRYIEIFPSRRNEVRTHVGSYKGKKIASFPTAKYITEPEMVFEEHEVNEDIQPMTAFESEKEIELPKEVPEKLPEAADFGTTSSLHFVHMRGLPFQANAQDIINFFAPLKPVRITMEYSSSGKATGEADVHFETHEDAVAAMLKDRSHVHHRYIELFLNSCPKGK
UniProt Q9HC38: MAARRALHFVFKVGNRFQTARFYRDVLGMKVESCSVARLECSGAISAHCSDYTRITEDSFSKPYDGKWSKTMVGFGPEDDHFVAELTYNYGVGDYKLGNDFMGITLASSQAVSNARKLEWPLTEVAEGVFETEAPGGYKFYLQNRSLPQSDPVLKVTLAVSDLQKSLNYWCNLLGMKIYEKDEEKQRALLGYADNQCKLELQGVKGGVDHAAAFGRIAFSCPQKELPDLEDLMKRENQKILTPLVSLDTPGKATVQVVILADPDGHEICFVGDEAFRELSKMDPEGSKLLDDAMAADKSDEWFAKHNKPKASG
UniProt P17174: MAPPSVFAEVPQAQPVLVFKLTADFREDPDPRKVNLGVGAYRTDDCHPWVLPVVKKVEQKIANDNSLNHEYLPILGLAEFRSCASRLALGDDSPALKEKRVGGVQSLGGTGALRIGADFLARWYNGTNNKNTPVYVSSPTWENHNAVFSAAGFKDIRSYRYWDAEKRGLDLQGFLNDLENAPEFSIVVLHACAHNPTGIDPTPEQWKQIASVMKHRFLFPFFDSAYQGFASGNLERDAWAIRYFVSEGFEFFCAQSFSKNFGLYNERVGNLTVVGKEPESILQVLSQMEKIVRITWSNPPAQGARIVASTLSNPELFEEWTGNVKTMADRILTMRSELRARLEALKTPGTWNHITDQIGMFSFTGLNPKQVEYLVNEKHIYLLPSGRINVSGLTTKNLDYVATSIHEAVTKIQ
UniProt P17900: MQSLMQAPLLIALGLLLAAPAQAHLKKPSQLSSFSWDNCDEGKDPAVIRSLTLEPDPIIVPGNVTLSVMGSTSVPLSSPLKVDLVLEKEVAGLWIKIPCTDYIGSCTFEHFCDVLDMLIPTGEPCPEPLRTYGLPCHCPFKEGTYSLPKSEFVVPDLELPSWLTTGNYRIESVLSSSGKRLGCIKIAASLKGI
UniProt O60234, whole entry, looked up: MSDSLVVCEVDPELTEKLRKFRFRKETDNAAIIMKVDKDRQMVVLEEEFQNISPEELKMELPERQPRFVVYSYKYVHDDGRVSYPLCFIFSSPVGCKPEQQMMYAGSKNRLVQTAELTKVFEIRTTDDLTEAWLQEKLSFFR
UniProt Q9Y5P6: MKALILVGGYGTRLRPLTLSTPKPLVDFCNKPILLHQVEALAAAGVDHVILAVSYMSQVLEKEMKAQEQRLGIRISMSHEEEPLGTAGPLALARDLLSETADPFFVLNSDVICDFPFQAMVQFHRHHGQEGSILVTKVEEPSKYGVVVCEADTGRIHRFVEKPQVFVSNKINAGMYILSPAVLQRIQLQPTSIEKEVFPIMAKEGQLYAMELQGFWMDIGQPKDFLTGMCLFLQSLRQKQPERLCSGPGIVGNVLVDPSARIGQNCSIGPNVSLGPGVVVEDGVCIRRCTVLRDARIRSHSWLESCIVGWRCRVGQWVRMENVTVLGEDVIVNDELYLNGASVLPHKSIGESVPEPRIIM
UniProt Q9BRT9, whole entry, looked up: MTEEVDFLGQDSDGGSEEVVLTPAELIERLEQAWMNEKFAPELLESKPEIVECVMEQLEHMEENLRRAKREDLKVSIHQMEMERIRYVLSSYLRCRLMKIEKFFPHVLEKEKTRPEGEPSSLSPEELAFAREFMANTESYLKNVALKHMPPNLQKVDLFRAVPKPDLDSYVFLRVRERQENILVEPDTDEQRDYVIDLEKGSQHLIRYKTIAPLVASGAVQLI
UniProt O75791: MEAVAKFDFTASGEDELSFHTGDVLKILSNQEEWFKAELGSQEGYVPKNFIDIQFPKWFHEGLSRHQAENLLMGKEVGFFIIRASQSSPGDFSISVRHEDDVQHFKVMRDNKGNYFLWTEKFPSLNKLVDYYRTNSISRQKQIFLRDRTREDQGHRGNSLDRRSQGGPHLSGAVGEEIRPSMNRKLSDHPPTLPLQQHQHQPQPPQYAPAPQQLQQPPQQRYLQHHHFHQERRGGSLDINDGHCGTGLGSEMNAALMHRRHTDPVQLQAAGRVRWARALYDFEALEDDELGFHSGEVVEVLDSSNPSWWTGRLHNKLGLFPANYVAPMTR
UniProt Q8N335: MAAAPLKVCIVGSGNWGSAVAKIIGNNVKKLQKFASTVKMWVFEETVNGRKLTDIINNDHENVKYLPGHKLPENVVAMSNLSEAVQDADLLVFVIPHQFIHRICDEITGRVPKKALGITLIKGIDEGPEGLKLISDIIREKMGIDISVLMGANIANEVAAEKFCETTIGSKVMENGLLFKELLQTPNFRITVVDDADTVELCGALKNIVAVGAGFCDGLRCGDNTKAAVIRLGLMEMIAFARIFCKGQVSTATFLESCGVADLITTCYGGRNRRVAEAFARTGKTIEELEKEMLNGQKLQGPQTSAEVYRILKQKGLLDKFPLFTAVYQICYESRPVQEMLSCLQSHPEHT
UniProt Q9UKJ3: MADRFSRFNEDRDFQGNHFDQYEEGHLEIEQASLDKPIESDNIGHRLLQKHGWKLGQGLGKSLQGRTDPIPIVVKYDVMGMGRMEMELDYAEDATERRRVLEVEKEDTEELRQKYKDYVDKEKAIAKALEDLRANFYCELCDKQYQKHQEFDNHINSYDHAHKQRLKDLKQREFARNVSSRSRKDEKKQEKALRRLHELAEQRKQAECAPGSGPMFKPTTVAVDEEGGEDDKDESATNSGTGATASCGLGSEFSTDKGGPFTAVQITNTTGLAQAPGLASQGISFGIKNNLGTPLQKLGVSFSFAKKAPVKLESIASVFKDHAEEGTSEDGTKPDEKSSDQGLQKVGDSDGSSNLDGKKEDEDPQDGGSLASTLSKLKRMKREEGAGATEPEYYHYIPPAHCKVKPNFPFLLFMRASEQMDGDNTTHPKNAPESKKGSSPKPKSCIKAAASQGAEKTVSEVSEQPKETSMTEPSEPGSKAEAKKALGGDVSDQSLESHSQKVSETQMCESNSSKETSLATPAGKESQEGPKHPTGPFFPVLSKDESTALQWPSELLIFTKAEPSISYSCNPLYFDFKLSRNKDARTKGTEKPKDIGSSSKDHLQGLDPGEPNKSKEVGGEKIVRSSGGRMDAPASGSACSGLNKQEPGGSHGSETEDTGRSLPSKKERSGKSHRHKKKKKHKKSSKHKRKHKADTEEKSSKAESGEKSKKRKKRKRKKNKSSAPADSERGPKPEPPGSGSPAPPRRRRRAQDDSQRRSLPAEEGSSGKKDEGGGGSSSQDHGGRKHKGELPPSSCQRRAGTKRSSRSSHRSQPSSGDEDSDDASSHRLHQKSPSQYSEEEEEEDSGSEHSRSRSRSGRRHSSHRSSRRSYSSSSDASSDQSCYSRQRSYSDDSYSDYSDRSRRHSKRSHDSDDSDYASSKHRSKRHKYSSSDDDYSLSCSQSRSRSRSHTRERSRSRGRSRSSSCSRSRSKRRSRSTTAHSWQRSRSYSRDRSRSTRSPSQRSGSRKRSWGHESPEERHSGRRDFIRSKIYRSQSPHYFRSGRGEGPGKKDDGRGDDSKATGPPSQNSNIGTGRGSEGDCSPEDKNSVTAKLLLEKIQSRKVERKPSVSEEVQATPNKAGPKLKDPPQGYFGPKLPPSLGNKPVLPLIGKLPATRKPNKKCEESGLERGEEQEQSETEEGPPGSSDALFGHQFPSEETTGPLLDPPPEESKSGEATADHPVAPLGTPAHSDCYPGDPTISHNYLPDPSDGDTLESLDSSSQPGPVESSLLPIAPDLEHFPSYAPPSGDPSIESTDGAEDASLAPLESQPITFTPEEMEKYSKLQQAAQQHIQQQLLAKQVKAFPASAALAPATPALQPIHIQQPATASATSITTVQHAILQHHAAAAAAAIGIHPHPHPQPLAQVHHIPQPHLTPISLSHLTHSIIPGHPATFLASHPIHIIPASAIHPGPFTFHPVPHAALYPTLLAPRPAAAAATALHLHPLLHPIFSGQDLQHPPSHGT
UniProt Q9P2T1: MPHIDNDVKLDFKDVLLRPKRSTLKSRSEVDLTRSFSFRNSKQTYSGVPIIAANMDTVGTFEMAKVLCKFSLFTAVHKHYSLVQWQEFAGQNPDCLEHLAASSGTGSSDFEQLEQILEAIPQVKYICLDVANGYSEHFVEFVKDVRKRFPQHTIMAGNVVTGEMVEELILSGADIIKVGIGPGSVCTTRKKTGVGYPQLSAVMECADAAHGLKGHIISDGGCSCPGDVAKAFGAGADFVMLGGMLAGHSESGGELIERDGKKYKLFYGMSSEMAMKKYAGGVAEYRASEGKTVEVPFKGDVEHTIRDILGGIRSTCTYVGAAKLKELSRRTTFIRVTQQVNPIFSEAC
UniProt Q9HCN4, whole entry, looked up: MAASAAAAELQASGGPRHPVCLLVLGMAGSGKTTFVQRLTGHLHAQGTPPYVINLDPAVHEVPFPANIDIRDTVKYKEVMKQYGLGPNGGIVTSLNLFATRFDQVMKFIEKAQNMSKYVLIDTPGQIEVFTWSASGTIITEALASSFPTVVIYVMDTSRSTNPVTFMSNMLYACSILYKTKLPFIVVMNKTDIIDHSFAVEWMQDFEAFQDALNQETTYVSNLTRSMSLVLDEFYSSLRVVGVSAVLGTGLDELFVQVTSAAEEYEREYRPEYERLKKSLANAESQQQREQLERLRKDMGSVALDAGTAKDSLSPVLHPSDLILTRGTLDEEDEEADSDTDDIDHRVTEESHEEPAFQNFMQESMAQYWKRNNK

Some of the results follow.

Compound in the first assay: Cn1cc(-c2ccc3c(c2)CCN3C(=O)Cc2cccc(C(F)(F)F)c2)c2c(N)ncnc21
The assay is described as follows: log2 fold change, soluble protein after heating vs DMSO (PISA); higher = thermal stabilisation; K562 cells, 10 uM, 30 min; active = over 0.2 and 3.5 SD of the protein, either way, in both replicates (recomputed). The method in brief: (§1)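 Quantification of soluble protein used TMTpro 16plex LC-MS/MS, with channel sums equalised. Samples were the supernatant after 21,000xg for 90 min of pooled aliquots from K562 cells (2×10^6 cells/mL) treated with 10 μM compound for 30 min, heated for 3 min over 48°C-58°C, and extracted in PBS with 0.5% NP-40 at 4°C. Values, from duplicates, describe thermal stability against control samples on a log2 fold-change scale.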
GRWD1 (UniProt Q9BQ67): the log2 fold change is inactive: -0.264.
Still for that read-out and setting: in the case of GRHPR (UniProt Q9UBQ7) it was inactive: 0.064; in that of GLG1 isoform 2 (UniProt Q92896), inactive: 0.025.
On the same count and under the same terms, in the case of GRSF1 (UniProt Q12849) it was inactive: -0.084; in that of GPHN isoform 2 (UniProt Q9NQX3), inactive: 0.017.
The same measure, in the same setting: under GLOD4 isoform 2 (UniProt Q9HC38) stands inactive: 0.059; under GLB1L2 (UniProt Q8IW92), inactive: 0.047; under GIPC1 (UniProt O14908), inactive: 0.028.
In the case of GOLGA2 (UniProt Q08379), the log2 fold change was inactive: -0.112.
The same measure, in the same setting: under GINS3 (UniProt Q9BRX5) stands inactive: 0.047.
The same measure, in the same setting: under GOLGA5 (UniProt Q8TBA6) stands inactive: -0.004; under GOT1 (UniProt P17174), inactive: 0.013; under GM2A (UniProt P17900), inactive: 0.017.
Consider GMFG (UniProt O60234), for which the log2 fold change was inactive: -0.015.
The same measure, in the same setting: under GNAQ (UniProt P50148) stands inactive: 0.023.
Still for that read-out and setting: in the case of GPATCH11 (UniProt Q8N954) it was inactive: -0.056.

Compound in another assay: Cn1cc(-c2ccc3nnc(C(F)(F)c4ccc5ncccc5c4)n3n2)cn1
The assay is described as above. The gist of the method: as §1
With GMPPB isoform 2 (UniProt Q9Y5P6), the log2 fold change was inactive: -0.018.
The same measure, in the same setting: in the case of GK (UniProt P32189) it was inactive: 0.22.
The same measure, in the same setting: in the case of GRN (UniProt P28799) it was inactive: -0.064.
Still for that read-out and setting: in the case of GRB2 (UniProt P62993) it was inactive: 0.013.
As to GINS4 (UniProt Q9BRT9), the log2 fold change was inactive: 0.027.
The same measure, in the same setting: in the case of GRAP2 (UniProt O75791) it was inactive: -0.027; in that of GPD1L (UniProt Q8N335), inactive: -0.038; in that of GNA13 (UniProt Q14344), inactive: -0.05.
With GOSR1 (UniProt O95249), the log2 fold change was inactive: 0.038.
For GPATCH8 (UniProt Q9UKJ3), the log2 fold change was inactive: -0.067.
On to GPALPP1 (UniProt Q8IXQ4), for which the log2 fold change is inactive: 0.105.
GPD2 (UniProt P43304): the log2 fold change is inactive: 0.
As to GPRIN1 (UniProt Q7Z2K8), the log2 fold change was inactive: 0.057.
The same measure, in the same setting: under GPN3 isoform 2 (UniProt Q9UHW5) stands inactive: -0.046.
On the same count and under the same terms, under GNPDA2 (UniProt Q8TDQ7) stands inactive: 0.07; under GMPR2 isoform 2 (UniProt Q9P2T1), inactive: -0.005.
As to GNE isoform 2 (UniProt Q9Y223), the log2 fold change is inactive: 0.004.
The same measure, in the same setting: in the case of GPAA1 (UniProt O43292) it was inactive: 0.028; in that of GPR107 (UniProt Q5VW38), inactive: 0.015; in that of GORASP2 isoform 3 (UniProt Q9H8Y8), inactive: -0.116.
Same read-out and setting: in the case of GOLIM4 (UniProt O00461) it was inactive: 0.018; in that of GPN1 isoform 5 (UniProt Q9HCN4), inactive: -0.051.
Regarding GOLT1B (UniProt Q9Y3E0), the log2 fold change was inactive: -0.08.
Still for that read-out and setting: under GRWD1 (UniProt Q9BQ67) stands inactive: -0.169; under GRHPR (UniProt Q9UBQ7), inactive: -0.006.
The same measure, in the same setting: under GLG1 isoform 2 (UniProt Q92896) stands inactive: 0.035.
The same measure, in the same setting: under GRSF1 (UniProt Q12849) stands inactive: -0.064.
Consider GPHN isoform 2 (UniProt Q9NQX3), for which the log2 fold change is inactive: 0.007.
With GLOD4 isoform 2 (UniProt Q9HC38), the log2 fold change was inactive: 0.033.
With GLB1L2 (UniProt Q8IW92), the log2 fold change was inactive: 0.09.
As for GIPC1 (UniProt O14908), the log2 fold change is inactive: 0.048.
Same read-out and setting: under GOLGA2 (UniProt Q08379) stands inactive: -0.104; under GINS3 (UniProt Q9BRX5), inactive: 0.031; under GOLGA5 (UniProt Q8TBA6), inactive: -0.01.
Same read-out and setting: under GOT1 (UniProt P17174) stands inactive: -0.006.
Still for that read-out and setting: under GM2A (UniProt P17900) stands inactive: 0.009.
Consider GMFG (UniProt O60234), for which the log2 fold change was inactive: -0.058.
Regarding GNAQ (UniProt P50148), the log2 fold change was inactive: 0.008.
With GPATCH11 (UniProt Q8N954), the log2 fold change is inactive: -0.006.
